The target in assay [1] is T1, TGA3-mRFP (Arabidopsis thaliana) (UniProt Q39234).
T1 sequence (looked up): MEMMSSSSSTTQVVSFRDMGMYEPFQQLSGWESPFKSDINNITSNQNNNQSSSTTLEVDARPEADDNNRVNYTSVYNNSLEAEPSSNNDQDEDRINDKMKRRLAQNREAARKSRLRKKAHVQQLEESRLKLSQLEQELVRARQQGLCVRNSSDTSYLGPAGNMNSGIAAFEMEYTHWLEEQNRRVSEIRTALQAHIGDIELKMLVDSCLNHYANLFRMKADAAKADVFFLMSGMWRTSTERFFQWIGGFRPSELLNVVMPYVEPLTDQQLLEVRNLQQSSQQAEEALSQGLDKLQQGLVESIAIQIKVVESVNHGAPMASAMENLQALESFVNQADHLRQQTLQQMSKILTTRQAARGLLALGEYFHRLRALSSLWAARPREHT
The assay can be described thus: co-immunoprecipitation with anti-RFP beads, transient co-expression in N. benthamiana; WT interaction is the reference that the mutants lose.

The target of assay [2] is T1, TGA3-mRFP (Arabidopsis thaliana). The assay can be described thus: co-immunoprecipitation, transient co-expression in N. benthamiana.
Assay [3] has as its target T2, Myc-tagged CUL3A (Myc-CUL3) (UniProt Q9ZVH4).
T2 sequence (looked up): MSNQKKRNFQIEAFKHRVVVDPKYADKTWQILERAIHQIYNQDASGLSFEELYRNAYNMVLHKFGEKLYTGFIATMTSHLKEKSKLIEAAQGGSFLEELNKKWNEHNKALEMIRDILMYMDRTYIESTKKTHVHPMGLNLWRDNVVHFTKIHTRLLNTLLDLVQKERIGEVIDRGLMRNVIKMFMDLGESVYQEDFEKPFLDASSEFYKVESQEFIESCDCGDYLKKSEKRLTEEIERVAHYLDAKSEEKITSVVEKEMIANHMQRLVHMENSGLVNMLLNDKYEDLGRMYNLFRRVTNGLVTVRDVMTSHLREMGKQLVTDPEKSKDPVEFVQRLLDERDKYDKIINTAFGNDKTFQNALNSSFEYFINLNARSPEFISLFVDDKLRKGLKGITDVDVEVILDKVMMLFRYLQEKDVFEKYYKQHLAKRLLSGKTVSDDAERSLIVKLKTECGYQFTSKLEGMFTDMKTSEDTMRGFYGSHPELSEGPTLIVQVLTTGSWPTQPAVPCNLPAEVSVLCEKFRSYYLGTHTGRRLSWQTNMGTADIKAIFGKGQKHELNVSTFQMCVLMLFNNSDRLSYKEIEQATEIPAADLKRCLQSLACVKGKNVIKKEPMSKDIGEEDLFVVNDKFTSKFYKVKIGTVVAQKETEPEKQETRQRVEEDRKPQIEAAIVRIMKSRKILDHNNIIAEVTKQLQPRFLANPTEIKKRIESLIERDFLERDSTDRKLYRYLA
Kind of assay: GST pull-down from E. coli lysate after co-expression; WT interaction is the reference.

Assay [4] has as its target npr1(C82A), purified recombinant protein (Arabidopsis thaliana) (UniProt P93002). The assay can be described thus: size-exclusion chromatography on Superose 6 Increase; self-association. (SEC sorts molecules by how far they enter the pores of the column.)
Assay [5] has as its target T2, Myc-tagged CUL3A (Myc-CUL3). The assay can be described thus: GST pull-down from E. coli lysate after co-expression.
The target in assay [6] is T3, Full-length Arabidopsis thaliana NPR1 with C-terminal Strep tag, expressed in insect cells (NPR1-Strep) (Arabidopsis thaliana), P93002.
T3 chain: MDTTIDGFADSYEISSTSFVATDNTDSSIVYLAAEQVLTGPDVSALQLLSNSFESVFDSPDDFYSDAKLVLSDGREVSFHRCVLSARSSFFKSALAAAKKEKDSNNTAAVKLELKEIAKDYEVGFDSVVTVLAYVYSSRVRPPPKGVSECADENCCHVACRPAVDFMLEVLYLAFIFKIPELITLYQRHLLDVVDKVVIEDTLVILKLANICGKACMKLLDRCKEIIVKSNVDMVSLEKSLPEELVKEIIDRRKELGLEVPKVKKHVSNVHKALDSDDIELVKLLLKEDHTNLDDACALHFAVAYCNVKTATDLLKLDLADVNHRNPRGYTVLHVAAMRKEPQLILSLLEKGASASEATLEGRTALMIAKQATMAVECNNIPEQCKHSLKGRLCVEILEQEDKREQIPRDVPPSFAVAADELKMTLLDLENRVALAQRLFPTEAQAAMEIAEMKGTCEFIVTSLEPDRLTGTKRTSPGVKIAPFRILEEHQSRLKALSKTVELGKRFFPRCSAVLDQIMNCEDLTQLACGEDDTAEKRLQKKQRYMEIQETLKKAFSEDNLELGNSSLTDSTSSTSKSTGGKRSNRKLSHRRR
Kind of assay: cryo-EM; homodimer. The following applies: remark: other sources report otherwise.

Assay [7] has as its target T3, Full-length Arabidopsis thaliana NPR1 …. The assay can be described thus: BS3 cross-linking and SDS-PAGE; self-association. The following applies: remark: other sources report otherwise.

No constants are given. Whether binding was seen depends on the method and setting. For part of these data: In cells and extracts the contact can be indirect. Some results given as binding are weak or reduced against the parent protein; the word gives no strength. For part of these data: Where a sequence is shown, tags or fusion partners need not be part of it.

For “HA-tagged Arabidopsis NPR1 (NPR1-HA) (from UniProt P93002 1-593)”, the binding entry in assay [1] is “binds”. On to “npr1(Q400C/E401L/R506C)-HA (from UniProt P93002 1-593)”, for which, in assay [2], the binding entry was “binds”. Consider “npr1(L346D)-HA (from UniProt P93002 1-593)”, for which the binding result in assay [2] is reported as “binds”. On to “GST-fused WT NPR1 (GST-NPR1) (from UniProt P93002 1-593)”, for which the binding result in assay [3] is on record as “binds”. For “npr1(C82A), purified recombinant protein (from UniProt P93002 1-593)”, the binding result in assay [4] is listed as “binds”. Consider “GST-fused NPR1 deltaBHB deletion mutant (deletion of E200-L258) (from UniProt P93002 1-593)”, for which the binding result in assay [5] is recorded as “binds”. On to “npr1(L393D)-HA (from UniProt P93002 1-593)”, for which the binding entry in assay [2] was “binds”.

B1: Full-length Arabidopsis thaliana NPR1 with C-terminal Strep tag, expressed in insect cells (NPR1-Strep), P93002 1-593 (protein, not shown: small tags and cut ends)
chain: MDTTIDGFADSYEISSTSFVATDNTDSSIVYLAAEQVLTGPDVSALQLLSNSFESVFDSPDDFYSDAKLVLSDGREVSFHRCVLSARSSFFKSALAAAKKEKDSNNTAAVKLELKEIAKDYEVGFDSVVTVLAYVYSSRVRPPPKGVSECADENCCHVACRPAVDFMLEVLYLAFIFKIPELITLYQRHLLDVVDKVVIEDTLVILKLANICGKACMKLLDRCKEIIVKSNVDMVSLEKSLPEELVKEIIDRRKELGLEVPKVKKHVSNVHKALDSDDIELVKLLLKEDHTNLDDACALHFAVAYCNVKTATDLLKLDLADVNHRNPRGYTVLHVAAMRKEPQLILSLLEKGASASEATLEGRTALMIAKQATMAVECNNIPEQCKHSLKGRLCVEILEQEDKREQIPRDVPPSFAVAADELKMTLLDLENRVALAQRLFPTEAQAAMEIAEMKGTCEFIVTSLEPDRLTGTKRTSPGVKIAPFRILEEHQSRLKALSKTVELGKRFFPRCSAVLDQIMNCEDLTQLACGEDDTAEKRLQKKQRYMEIQETLKKAFSEDNLELGNSSLTDSTSSTSKSTGGKRSNRKLSHRRR
For the molecule B1, the binding entry in assay [6] and in assay [7] was “binds” in each case.

Values taken from patent US20240368617A1, “NPR1 VARIANT TO ENHANCE PLANT RESISTANCE TO BIOTIC AND ABIOTIC STRESSES AND METHOD THEREOF” (Duke University, published 2024).
